# Results are given in words; binding and its absence hold for the method and conditions named. In cells and extracts the contact can be indirect. Some binding calls cover weakened binding; strength is not graded here.
# Protein sequences, listed by entry. Tags and fused reporters are not part of them.
# UniProt O09106: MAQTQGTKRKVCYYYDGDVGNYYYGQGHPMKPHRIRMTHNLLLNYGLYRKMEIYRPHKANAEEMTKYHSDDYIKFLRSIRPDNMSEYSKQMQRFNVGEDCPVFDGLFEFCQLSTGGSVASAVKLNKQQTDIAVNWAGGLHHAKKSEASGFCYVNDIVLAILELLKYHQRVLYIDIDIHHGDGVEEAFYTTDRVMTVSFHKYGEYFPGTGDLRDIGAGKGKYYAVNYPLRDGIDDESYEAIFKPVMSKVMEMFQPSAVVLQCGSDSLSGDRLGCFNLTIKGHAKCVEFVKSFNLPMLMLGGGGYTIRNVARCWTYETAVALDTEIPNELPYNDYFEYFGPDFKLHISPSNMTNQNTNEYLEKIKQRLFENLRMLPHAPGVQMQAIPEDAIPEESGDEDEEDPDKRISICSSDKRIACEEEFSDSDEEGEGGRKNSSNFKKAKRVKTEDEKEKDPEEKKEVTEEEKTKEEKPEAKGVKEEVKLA
# UniProt P70288: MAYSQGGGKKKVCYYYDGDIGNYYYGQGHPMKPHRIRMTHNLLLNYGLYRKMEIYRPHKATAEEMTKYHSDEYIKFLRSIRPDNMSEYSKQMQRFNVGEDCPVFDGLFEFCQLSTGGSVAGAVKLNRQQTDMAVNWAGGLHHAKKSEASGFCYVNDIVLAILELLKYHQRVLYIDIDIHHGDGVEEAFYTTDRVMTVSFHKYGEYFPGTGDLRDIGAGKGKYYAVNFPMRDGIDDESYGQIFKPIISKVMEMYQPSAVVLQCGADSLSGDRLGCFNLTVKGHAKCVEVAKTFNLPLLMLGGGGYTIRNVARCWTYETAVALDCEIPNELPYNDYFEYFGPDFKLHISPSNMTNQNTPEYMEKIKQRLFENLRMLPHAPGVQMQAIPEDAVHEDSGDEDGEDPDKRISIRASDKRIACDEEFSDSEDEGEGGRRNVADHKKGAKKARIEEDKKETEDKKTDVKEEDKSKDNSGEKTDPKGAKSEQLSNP
# Target: T1, DNTTIP1 (mouse (endogenous in mESCs)) (UniProt Q99LB0)
# T1 sequence: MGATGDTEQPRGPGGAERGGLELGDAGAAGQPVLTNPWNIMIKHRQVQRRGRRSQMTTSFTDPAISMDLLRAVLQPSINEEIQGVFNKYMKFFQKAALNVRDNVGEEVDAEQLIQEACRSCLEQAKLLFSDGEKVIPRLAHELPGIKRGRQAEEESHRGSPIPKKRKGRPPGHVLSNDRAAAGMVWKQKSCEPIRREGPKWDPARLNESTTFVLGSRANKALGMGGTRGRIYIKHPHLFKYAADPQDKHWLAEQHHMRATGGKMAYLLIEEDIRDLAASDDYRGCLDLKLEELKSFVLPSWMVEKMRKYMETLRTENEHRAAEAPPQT
# Assay: co-IP; IP with ELMSAN1 or DNTTIP1 antibody (IgG as control) on Dynabeads Protein G from nuclear extracts of WT, Dnttip1 KO1 or Elmsan1 KO1 mESCs; Lysis Buffer 2 (20 mM HEPES pH 7.9, 420 mM NaCl), 4°C overnight; WB for MiDAC components
row,binding,Substance
1,binds,HDAC1 (from UniProt O09106 1-482) (enzyme)
2,no binding,HDAC2 (from UniProt P70288 1-488) (enzyme)

# — publication PMC7192582
